Laboratory results: PubChem BioAssay AID1259308 (NCATS, 2017)

Screen: 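Knock-downs that increase output of a recombinant reporter protein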 (primary screen)
System: human HEK293 embryonic kidney cells stably expressing firefly luciferase (HEK-CMV-Luc2-Hygro)
Reagents: single siRNA against human genes, 0.8 pmol siRNA per well
Timing: 72 h
Measurement: 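Reporter luminescence and viable-cell signal on separate replicate plates, given as percent of non-targeting control and median/MAD z-scores, plus per-cell luciferase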
Scale: total luciferase, z-score and total luciferase, % of control: higher = more reporter protein produced
Call rule: 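An siRNA counts as active if its total luciferase robust z-score exceeds 3; genes with two or more such siRNAs out of three were retested with fresh siRNAs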
Meaning of the calls: active = raised luciferase; inactive = no rise
Shown is an unselected part of about 59,000 deposited reagents. About 1,510 of them (2.6%) were called active. 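Calls use total luciferase alone and ignore viability, so some active siRNAs may act by altering cell number.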 The numbers tell different reagents against one gene apart. Further read-outs or replicates are left out here. No sequences are given here.

no.	gene	reagent	total luciferase, z-score	total luciferase, % of control	outcome
1	MED26	1	-0.99	62.2	inactive
2	MED26	2	-1.93	43.4	inactive
3	MED26	3	0.156	85	inactive
4	FZD7	1	2.5	132	inactive
5	FZD7	2	1.28	107	inactive
6	FZD7	3	0.082	83.5	inactive
7	MLX	1	0.431	90.5	inactive
8	MLX	2	0.0684	83.2	inactive
9	MLX	3	-0.523	71.5	inactive
10	RRH	1	-0.687	68.2	inactive
11	RRH	2	-0.239	77.1	inactive
12	RRH	3	0.0712	83.3	inactive
13	TEPSIN	1	0.708	96	inactive
14	TEPSIN	2	-0.0344	81.2	inactive
15	TEPSIN	3	0.397	89.8	inactive
16	ERO1B	1	0.359	89	inactive
17	ERO1B	2	-0.769	66.6	inactive
18	ERO1B	3	-1.12	59.6	inactive
19	USP4	1	-0.231	77.3	inactive
20	USP4	2	-0.8	66	inactive
21	USP4	3	-0.852	64.9	inactive
22	IL1RAPL2	1	-1.96	42.9	inactive
23	IL1RAPL2	2	0.0518	82.9	inactive
24	IL1RAPL2	3	1.32	108	inactive
25	PLA2G15	1	-0.783	66.3	inactive
26	PLA2G15	2	3.54	152	active
27	PLA2G15	3	0.236	86.6	inactive
28	MRM1	1	0.149	84.9	inactive
29	MRM1	2	0.188	85.6	inactive
30	MRM1	3	-0.427	73.4	inactive
31	LRRC34	1	-0.0797	80.3	inactive
32	LRRC34	2	0.498	91.8	inactive
33	LRRC34	3	-0.195	78	inactive
34	NIM1K	1	2.62	134	inactive
35	NIM1K	2	0.842	98.6	inactive
36	NIM1K	3	2.91	140	inactive
37	CAPN7	1	-0.15	78.9	inactive
38	CAPN7	2	0.988	102	inactive
39	CAPN7	3	2.17	125	inactive
40	INIP	1	0.9	99.8	inactive
41	INIP	2	1.5	112	inactive
42	INIP	3	1.69	116	inactive
43	SOX30	1	1.9	120	inactive
44	SOX30	2	0.52	92.2	inactive
45	SOX30	3	2.06	123	inactive
46	SHOC1	1	-1.41	53.8	inactive
47	SHOC1	2	0.369	89.2	inactive
48	SHOC1	3	0.527	92.4	inactive
49	FDPS	1	-1.87	44.7	inactive
50	FDPS	2	-0.554	70.9	inactive
51	FDPS	3	-0.536	71.2	inactive
52	ACP7	1	-0.93	63.4	inactive
53	ACP7	2	-1.48	52.4	inactive
54	ACP7	3	-1.74	47.3	inactive
55	TIMD4	1	0.242	86.7	inactive
56	TIMD4	2	0.683	95.5	inactive
57	TIMD4	3	0.0351	82.6	inactive

8 of these entries, set out differently:
PLA2G15 #2 — total luciferase, z-score = 3.54; total luciferase, % of control = 152; outcome = active
PLA2G15 #3 — total luciferase, z-score = 0.236; total luciferase, % of control = 86.6; outcome = inactive
MRM1 #1 — total luciferase, z-score = 0.149; total luciferase, % of control = 84.9; outcome = inactive
MRM1 #2 — total luciferase, z-score = 0.188; total luciferase, % of control = 85.6; outcome = inactive
MRM1 #3 — total luciferase, z-score = -0.427; total luciferase, % of control = 73.4; outcome = inactive
LRRC34 #1 — total luciferase, z-score = -0.0797; total luciferase, % of control = 80.3; outcome = inactive
LRRC34 #2 — total luciferase, z-score = 0.498; total luciferase, % of control = 91.8; outcome = inactive
LRRC34 #3 — total luciferase, z-score = -0.195; total luciferase, % of control = 78; outcome = inactive
